Measurements taken from article PMC12040169 (PLOS Biology, 2025).
Some of the results follow.

What follows are compounds tested on T1, CTL2-GFP (C. trachomatis L2/434/Bu, GFP-expressing). Conditions: bulk GFP, single well; 28.5 h, 10 µM; inhibitor.
T1 construct: L2/434/Bu, GFP-expressing
Set-up: species or system HeLa; Intracellular C. trachomatis growth in HeLa cells, bulk GFP fluorescence relative to DMSO

| SMILES | % of control remaining [%] |
| --- | --- |
| CN1CCN(C(=S)Nc2ccc(S(N)(=O)=O)cc2)CC1 [CBK265223] | 121.312 |
| O=C(Nc1ccc(I)cc1C(=O)NCCN1CCOCC1)c1ccco1 [CBK266211] | 131.718 |
| Fc1ccc(-c2cncc(Nc3ccc4c(c3)OC(F)(F)C(F)(F)O4)n2)c(F)c1 [CBK065692] | 156.019 |
| Cc1c(Br)c(C(F)(F)F)nn1CC(=O)Nc1cc(C(F)(F)F)ccc1Cl [CBK087518] | 100 |
| CNC(=O)CSc1nnc2[nH]c(=O)c(C)c(C)n12 [CBK287687] | 97.3974 |
| O=C(CSc1nnc(-c2cccnc2)o1)Nc1ccccc1 [CBK287742] | 122.324 |
| CS(=O)(=O)c1ccc(Cn2ccnc(OC3CCN(C(=O)c4ccc(C#N)cc4)CC3)c2=O)cc1 [CBK161804] | 104.084 |
| Cc1nn(C)cc1C(C)NC(=O)c1cn2cccc(C)c2n1 (stereo not shown) [CBK281731] | 146.479 |
| COc1ccc(-c2ccnc(N[C@H]3CO[C@H]4[C@@H]3OC[C@@H]4NC(=O)c3ccccc3)n2)cc1 [CBK289526] | 108.44 |
| CC(NC(=O)Cn1c(=O)oc2ccc(Cl)cc21)C1CC2CCC1C2 (stereo not shown) [CBK281636] | 112.134 |
| COCCNC(=O)c1cc(-c2ccccc2C)cnc1NS(C)(=O)=O [CBK106422] | 100 |
| Cc1cnc2c(C(=O)Nc3cccc(CCc4ccncc4)c3)cnn2c1 [CBK285558] | 124.215 |
| CN(C)CCNC(=O)c1cccc(-c2cncc(N3CCN(c4ccncc4)CC3)n2)c1 [CBK065391] | 159.248 |
| CCN1CC2(CCN(CC3CC3)CC2)c2ccccc21 [CBK136987] | 88.8909 |
| CN(C)CC1CCCCN1C(=O)C1C2CCCCC21 (stereo not shown) [CBK282087] | 102.973 |
| CC(C)n1ccnc1CN1CCn2nc(CNc3cnccn3)cc2C1 [CBK306902] | 141.02 |
| CCc1nnc(NS(=O)(=O)c2cc(C(=O)O)c(Cl)cc2F)s1 [CBK062195] | 113.235 |
| O=C(NCC1(c2ccccc2F)CCOCC1)[C@@H]1C[C@@H]2C=C[C@H]1C2 [CBK281552] | 127.812 |
| CCn1cc(CC(=O)Nc2cccc(-n3cnnc3)c2)c2ccccc21 [CBK282669] | 134.554 |
| CCOC(=O)C(C)n1nc(C)n2c(cc3sccc32)c1=O (stereo not shown) [CBK283333] | 143.183 |
| CN(C)S(=O)(=O)c1ccc(C(=O)Nc2ccc(-c3ccccc3)cc2)cc1 [CBK264978] | 117.687 |
| CN(C)S(=O)(=O)N(CC(=O)NCc1ccncc1)c1ccccc1 [CBK268322] | 130.377 |
| O=C(CSc1nnc(CN2CCOCC2)n1-c1ccc(Cl)cc1)N1CCc2ccccc21 [CBK269008] | 96.9474 |
| Cn1nnc2c(N3CCN(C(=O)c4ccccc4)CC3)ncnc21 [CBK287830] | 130.487 |
| O=C(C1CCCC1)N1CCC[C@@H]1Cn1c(=O)oc2ccccc21 [CBK284539] | 154.792 |

2 of the compounds above, with tabs:
SMILES	% of control remaining [%]
O=C(CSc1nnc(-c2cccnc2)o1)Nc1ccccc1 [CBK287742]	122.324
CC(NC(=O)Cn1c(=O)oc2ccc(Cl)cc21)C1CC2CCC1C2 (stereo not shown) [CBK281636]	112.134

(cont.)

| SMILES | % of control remaining [%] |
| --- | --- |
| COc1nccnc1OC1CCN(Cc2ccccc2)CC1 [CBK084238] | 113.188 |
| COc1ccc(OC)c(C2CC(c3ccc(NS(C)(=O)=O)cc3)=NN2C(=O)CCC(=O)O)c1 (stereo not shown) [CBK297781] | 110.125 |
| Clc1ccc(-n2ncc(-c3cccnc3)n2)cc1Cl [CBK112814] | 90.624 |
| O=C(O)CCC(=O)NCc1ccc(-c2nccnc2NS(=O)(=O)c2ccc(O)cc2)cc1 [CBK073843] | 81.8376 |
| COC(=O)c1ccccc1NC(=O)CSc1nc(C)cc(C)n1 [CBK263818] | 100.947 |
| CC(C)C(=O)N1C2CCC1Cn1c(nc3ccccc3c1=O)C2 (stereo not shown) [CBK284450] | 132.697 |
| CC(C)(C)C(=O)CN1CCC(C(=O)NC(c2ccccc2)c2ccco2)CC1 (stereo not shown) [CBK148298] | 143.867 |
| Cc1nc(NS(=O)(=O)c2cc(F)c(Br)cc2F)sc1C(=O)O [CBK045556] | 107.762 |
| Cc1ccccc1NC(=O)CC(C(=O)O)N(C)C (stereo not shown) [CBK266924] | 159.961 |
| O=C(NOCc1ccccc1)c1nn(-c2ncccn2)c2ccccc12 [CBK048503] | 132.33 |
| COc1ccc(-c2cn(-c3cc(Cl)ccc3C)nn2)cc1 [CBK113023] | 89.0181 |
| COc1cncc(-c2ccc(N3CCN(C(=O)c4ccco4)CC3)nc2)c1 [CBK037801] | 84.2574 |
| CN1CCN(C(=O)c2c(NS(=O)(=O)c3cc(F)c(Br)cc3F)sc3c2CCCC3)CC1 [CBK050419] | 102.741 |
| CCCC/C=C/c1nccnc1NCC1CC1 [CBK037268] | 151.986 |
| O=C(c1ccc(-c2ccc(F)cc2)o1)N1CCC(n2c(=O)oc3ccccc32)CC1 [CBK286175] | 74.6505 |
| C=CCn1c(-c2sc(NC(=O)c3ccc(CNC(=O)NC(C)C)cc3)nc2C)n[nH]c1=S [CBK297764] | 92.3482 |
| CN(C)C(=O)CN1C(=O)CC2(C1=O)C(=O)N(C)c1ccc(Cl)cc12 (stereo not shown) [CBK075232] | 120.56 |
| CC1(C)CC(NC(=O)c2cc(Cn3ccc4ccccc43)[nH]n2)CCO1 (stereo not shown) [CBK307092] | 105.042 |
| NC(=O)C1CCN(CC(O)COc2ccc(-c3ccccc3)cc2)CC1 (stereo not shown) [CBK269528] | 122.581 |
| O=C(Cn1cnc2c(cnn2-c2ccc(F)cc2)c1=O)Nc1ccc(F)cc1F [CBK287537] | 147.504 |
| Cc1nc2c3c(sc2c(=O)[nH]1)NC(=O)CC3c1ccccc1 (stereo not shown) [CBK288094] | 132.62 |
| Cc1nc2ccc(C(=O)NC3=NC(=O)CS3)cn2c1N(C)Cc1cccs1 [CBK146110] | 164.169 |
| Cc1ccc(S(=O)(=O)N(CC(O)CN2C(=O)NC(C)(C)C2=O)c2ccccc2[N+](=O)[O-])cc1 (stereo not shown) [CBK263572] | 83.058 |
| O=C(O)c1cccc(Sc2nc3cc(Cl)c(Cl)cc3nc2N2CCCC2)c1 [CBK093588] | 103.975 |
